Measured data: PubChem BioAssay AID686938 (Drosophila RNAi Screening Center, 2013)
Purpose: 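Looking for CRAC channel components and the factors controlling them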 (primary screen). System: Drosophila S2R+ cells. Reagents: long dsRNA against Drosophila genes, about 0.25 µg dsRNA per well, roughly 10,000 cells. Duration: 5 days of knock-down before the calcium assay. Challenge: thapsigargin (SERCA pump blocker) to empty calcium stores; entry signal taken 4 min after adding it. Read-out: 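Per-well fluo-4 fluorescence in two replicates, unnormalised, measured in resting cells and 4 min after store depletion by the SERCA blocker thapsigargin; ratio of the two present in few wells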. Direction: calcium entry signal: higher = stronger calcium signal after store depletion; entry to resting ratio: higher = more calcium entry relative to resting level; resting calcium signal: higher = higher resting calcium signal. Rule for the call: 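Hit if the duplicate-averaged plate z-score for entry over resting signal is under −3; wells with weak total dye signal (Fmax z < −2) or more than 5 off-targets removed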. Calls: active = strongly reduced calcium entry; inactive = no strong reduction.
The screen tested about 23,000 reagents; this is an unselected part of those with a known target gene and a result. Of all reagents, 75 (0.33%) are marked active. 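Raw plate signals without normalisation; calls rest on plate z-scores that were not deposited; ratio present for only 364 wells.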 Entries without a mark were called inactive. A plus sign joins genes that one reagent is predicted to hit. No sequences are given here. The record does not give: the dose of the treatment.

Target gene,DRSC id,"calcium entry signal, replicate 1 (fluorescence units)","calcium entry signal, replicate 2 (fluorescence units)",entry to resting ratio,"resting calcium signal, replicate 1 (fluorescence units)","resting calcium signal, replicate 2 (fluorescence units)"
mael (maelstrom),DRSC11894,2.89e7,4.06e7,,1.47e7,3.04e7
NimA (Nimrod A),DRSC01353,1.84e7,2.65e7,,9.98e6,1.23e7
NimA (Nimrod A),DRSC22170,3.21e7,3.77e7,,1.58e7,2.06e7
CG8401,DRSC07165,3.34e7,3.19e7,,1.55e7,1.63e7
CG14022,DRSC02352,3.78e7,4.01e7,,1.82e7,1.76e7
DptA (Diptericin A),DRSC07404,3.78e7,4.81e7,,1.64e7,2.27e7
CG12609,DRSC19473,1.48e7,3.87e7,,9.07e6,1.62e7
CG14007,DRSC02339,2.95e7,2.70e7,,1.45e7,1.36e7
CG32832,DRSC01562,2.61e7,3.89e7,,1.30e7,1.80e7
mesh,DRSC14472,4.56e7,5.62e7,,2.39e7,2.65e7
mesh,DRSC15098,3.96e7,6.26e7,,1.95e7,2.49e7
mesh,DRSC15099,4.03e7,5.39e7,,2.03e7,2.39e7
CG13442,DRSC06402,2.56e7,2.83e7,,1.28e7,1.29e7
CR12842 (pseudo),DRSC06188,3.85e7,4.21e7,,1.76e7,1.82e7
CG4116,DRSC18348,4.64e7,6.60e7,1.9,2.42e7,2.60e7
Mcr (Macroglobulin complement-related),DRSC03366,4.54e7,,,2.67e7,
CG31924,DRSC00689,4.62e7,5.12e7,,2.04e7,2.36e7
CG31776,DRSC00716,2.73e7,3.08e7,,1.37e7,1.53e7
CG13989,DRSC02321,4.26e7,3.57e7,,2.03e7,1.76e7
Est-6 (Esterase 6),DRSC11162,3.30e7,3.69e7,,1.71e7,1.82e7
CG15614,DRSC06567,3.59e7,5.03e7,,1.76e7,2.28e7
Pdxk (Pyridoxal kinase),DRSC10419,1.59e7,1.76e7,,8.68e6,9.42e6
CG13814 (retired record),DRSC10069,2.10e7,3.46e7,,1.04e7,1.53e7
Elk (Eag-like K[+] channel),DRSC07608,3.27e7,3.00e7,,1.42e7,1.43e7
CG34224,DRSC05269,5.50e7,4.02e7,,2.74e7,1.60e7
CG4892,DRSC01937,4.89e7,3.90e7,,2.20e7,1.72e7
Lkr (Leucokinin receptor),DRSC09754,3.94e7,7.17e7,,1.82e7,2.80e7
CG12547,DRSC07759,3.07e7,4.41e7,,1.50e7,1.86e7
lncRNA:CR43409 (long non-coding RNA:CR43409),DRSC01164,3.03e7,3.14e7,,1.57e7,1.30e7
EMC8-9 (ER membrane protein complex subunit 8/9),DRSC04380,3.94e7,,,1.94e7,
Tdc1 (Tyrosine decarboxylase 1),DRSC04942,3.02e7,6.13e7,,1.54e7,2.68e7
U2af50 (U2 small nuclear riboprotein auxiliary factor 50),DRSC20297,2.33e7,2.18e7,,1.43e7,1.44e7
U2af50 (U2 small nuclear riboprotein auxiliary factor 50),DRSC22867,1.38e7,2.19e7,,8.57e6,1.19e7
CG17648,DRSC00508,3.14e7,4.29e7,,1.52e7,1.65e7
CG17378,DRSC02616,3.83e7,3.62e7,,1.86e7,1.69e7
Fcp3C (Follicle cell protein 3C),DRSC18665,4.17e7,5.68e7,2,2.05e7,2.34e7
CG42676,DRSC08227,4.47e7,3.68e7,,2.07e7,2.01e7
CG42676,DRSC08392,4.19e7,3.63e7,,2.03e7,1.77e7
CG5664,DRSC11782,7.22e7,2.89e7,,2.98e7,1.48e7
Bap111 (Brahma associated protein 111kD),DRSC18419,2.66e7 (active),4.12e7,,1.76e7,2.45e7
Prosbeta4R2 (Proteasome beta4 subunit-related 2),DRSC00503,3.81e7,,,2.10e7,
twz (tiwaz),DRSC04069,4.17e7,4.18e7,,1.91e7,1.76e7
CG33768,DRSC11715,2.96e7,4.97e7,,1.48e7,2.19e7
dare + CG30033,DRSC22908,3.96e7,4.50e7,,2.14e7,2.02e7
Pdha (Pyruvate dehydrogenase E1 alpha subunit),DRSC18413,3.42e7,5.18e7,,1.71e7,2.22e7
CG7264,DRSC10793,3.01e7,4.18e7,,1.51e7,1.79e7
p38a (p38a MAP kinase),DRSC16743,4.63e7,5.68e7,,2.45e7,2.54e7
Gagr (Gag-related),DRSC10441,3.89e7,4.60e7,,1.75e7,2.82e7
TBPH (TAR DNA-binding protein-43 homolog),DRSC04660,2.81e7,,,1.41e7,
CG15368,DRSC18040,3.35e7,5.31e7,,1.63e7,2.61e7
CG15368,DRSC23291,4.93e7,3.13e7,,2.52e7,1.44e7
Nmd3 (Nonsense-mediated mRNA 3),DRSC18687,2.73e7,4.67e7,,1.40e7,1.98e7
Nmd3 (Nonsense-mediated mRNA 3),DRSC22834,2.63e7,4.00e7,,1.44e7,1.97e7
Whamy (WHAMM and JMY related),DRSC14574,4.09e7,3.69e7,,2.10e7,1.82e7
CG11438,DRSC11660,3.49e7,4.92e7,,1.66e7,1.89e7
CG18585,DRSC02678,4.73e7,,,2.66e7,
Lap1,DRSC07454,3.42e7,4.59e7,,1.75e7,2.06e7
RpL36 (Ribosomal protein L36),DRSC18708,1.10e7,1.18e7,1.3,8.38e6,8.01e6

10 successive reagents from above:
Target gene,DRSC id,"calcium entry signal, replicate 1 (fluorescence units)","calcium entry signal, replicate 2 (fluorescence units)",entry to resting ratio,"resting calcium signal, replicate 1 (fluorescence units)","resting calcium signal, replicate 2 (fluorescence units)"
CG34224,DRSC05269,5.50e7,4.02e7,,2.74e7,1.60e7
CG4892,DRSC01937,4.89e7,3.90e7,,2.20e7,1.72e7
Lkr (Leucokinin receptor),DRSC09754,3.94e7,7.17e7,,1.82e7,2.80e7
CG12547,DRSC07759,3.07e7,4.41e7,,1.50e7,1.86e7
lncRNA:CR43409 (long non-coding RNA:CR43409),DRSC01164,3.03e7,3.14e7,,1.57e7,1.30e7
EMC8-9 (ER membrane protein complex subunit 8/9),DRSC04380,3.94e7,,,1.94e7,
Tdc1 (Tyrosine decarboxylase 1),DRSC04942,3.02e7,6.13e7,,1.54e7,2.68e7
U2af50 (U2 small nuclear riboprotein auxiliary factor 50),DRSC20297,2.33e7,2.18e7,,1.43e7,1.44e7
U2af50 (U2 small nuclear riboprotein auxiliary factor 50),DRSC22867,1.38e7,2.19e7,,8.57e6,1.19e7
CG17648,DRSC00508,3.14e7,4.29e7,,1.52e7,1.65e7
